From PubChem BioAssay AID1347423 (Functional Genomics Laboratory (NCATS/FGL), 2020)
Out of some 52,000 sequences screened, about 210 (0.4%) were called active.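 How the source made its calls: active means gene whose silencing raises cell survival under the drug, median off-target-corrected z-score across its silencing RNAs 2 or more; inactive means the rest.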 This is one part of the list.

Assay: Resistance to Poly (ADP-Ribose) Polymerase inhibitor: Gene Identification via Genome-wide siRNA Screen
Conditions: mouse BRCA2 R2336H ES cells, olaparib, CellTiter-Glo viability; stronger effect = higher value
Method in brief: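 Mouse BRCA2 R2336H ES cells were reverse-transfected with siRNA (20 nM final), treated at 48 h with 500 nM olaparib, and read by CellTiter-Glo after 72 h. Scores: MAD-based z per siRNA, median per gene, seed off-target correction.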
For “GGAAACUGUAAGUGUCAAUTT against 2600002E23Rik”, the z-score was inactive: 0.0757.
With “CGGCUCGUACACAUGUGAATT against 5730592L21Rik” the z-score was inactive: -0.129.
In the case of “GGUAGAAAAAACACAAACGTT against 4930511A21Rik”, the z-score is reported as inactive: 0.174.
In the case of GAGAGUGUGCUUCACACACTT against Olfr646, the z-score is reported as inactive: -0.64.
In the case of GCGACAUAAACAUUGUGGUTT against Adamts18, the z-score is reported as inactive: 0.545.
With GGAGAAGGUUCGAAGAAGCTT against BC003322 the z-score was inactive: -0.27.
With GGCAGUUAGAUGUCAGUGCTT against Edn1 the z-score was inactive: -0.26.
In the case of “CCAUCUCGCUACCAUGCAATT against F830020C16Rik”, the z-score is reported as inactive: 0.584.
In the case of CCCAACUAUACUGUCUACUTT against Slc22a6, the z-score is reported as inactive: -1.44.
With GCCUACUUGGAUGUUAAUGTT against Pappa the z-score was inactive: -0.378.
For CCCUGUAACCAAUAAGAAGTT against Snrpa1, the z-score was inactive: 0.474.
In the case of CGGAUGCCGCUGAUAAGAUTT against Pofut2, the z-score is reported as inactive: 0.237.
For “GGCAGUCAGGAAAUGCUUGTT against 2510027J23Rik”, the z-score was inactive: 1.78.
In the case of GGGUUGGAGAUAGGUUUUUTT against Rundc1, the z-score is reported as inactive: -0.36.
In the case of GUGGUGGGAUACACCAACUTT against Pgbpll, the z-score is reported as inactive: 0.858.
With GGGUUGAAAGAGCUUGCCATT against V1ri3 the z-score was inactive: -0.649.
In the case of CGAUGAUUCCAAGUUUGGCTT against Pinx1, the z-score is reported as inactive: -0.772.
With GCUACUUAAGGGUUUGGAUTT against Pcdhb3 the z-score was inactive: 2.89.
In the case of GGAACAGAGGAGGUAAAGCTT against Gtpbp2, the z-score is reported as inactive: 0.926.
With GGAGCUUGAAAUGCUUGGUTT against Dscr2 the z-score was inactive: -2.13.
In the case of GCAGAUCACUGGAGUAAACTT against Spz1, the z-score is reported as inactive: -1.51.
In the case of GGCCUUUUAUCAACGCAGUTT against Npc1l1, the z-score is reported as inactive: 0.539.
For GGGUUAGAUUUAGUCAAUGTT against Gsg2, the z-score was inactive: -0.0664.
In the case of UUUGCCGGGUUCCCAAAAGTT against C77604, the z-score is reported as inactive: 0.0427.
With GCAUCUCGCCACAUCUUGATT against Prm1 the z-score was inactive: 0.588.
For GCAGUUGUCACUGGCAAGUTT against Aqp2, the z-score was inactive: -2.89.
In the case of GCUUGGAGGAUACAUUCACTT against Gjb2, the z-score is reported as inactive: 0.505.
With CGUUUUUCUCUAACUUACATT against AI194318 the z-score was inactive: 0.632.
For GGUUUCAGAUGAGAAUGUATT against Mybpc3, the z-score was inactive: -1.14.
For GCAGCACGUUGAAAUGAGUTT against Dpp4, the z-score was inactive: -0.414.
In the case of “GGAAGUGGAAAUGAGGACATT against 2700008N14Rik”, the z-score is reported as inactive: -1.32.
For “GCUACCUGUGCAAGUGAACTT against 2700094K13Rik”, the z-score was inactive: -0.639.
With GGUCAUAAGAAGCUCAAGATT against Serpinb9d the z-score was inactive: -0.0731.
In the case of GGUGGUUGUUGAAUAUAAUTT against Habp4, the z-score is reported as inactive: 0.752.
With CCUUUGUACAAUGUAUAGATT against BC008163 the z-score was inactive: 1.09.
For CCGAAGGUGUUCAAAAUUCTT against Mbl2, the z-score was inactive: 0.528.
For GGCCUUCCUUGACCAAUCUTT against Ren1, the z-score was inactive: 0.878.
With GGAUAUGGUUGGUCAAAAUTT against Cdh7 the z-score was inactive: 1.38.
In the case of GGAACAGACACAGACACAGTT against Phxr5, the z-score is reported as inactive: -0.182.
With GGCACACCACUACACCAUCTT against Syk the z-score was inactive: -0.907.
In the case of CCUCUUCGCAUCAACACUGTT against Car10, the z-score is reported as inactive: -0.758.
For CCAAUAAGGCAUAUGUUUUTT against Scarb2, the z-score was inactive: -0.36.
With GCUCAAAACUCAAACUAGUTT against AI894139 the z-score was inactive: 0.383.
In the case of GCCUGUUGGGUGUUCUUCCTT against Olfr834, the z-score is reported as inactive: 0.333.
In the case of CCAAGGUUCCAAAACUGAUTT against Pglyrp4, the z-score is reported as inactive: -0.643.
In the case of GGGACAACAUGGAUUCAAGTT against Sult1c2, the z-score is reported as inactive: 2.64.
With CCUAGUCAAGGAUAGGUAUTT against LOC446210 the z-score was inactive: 0.496.
With GGAACUUACAUGAAUUCCATT against Slco1a4 the z-score was inactive: 0.847.
For GGAGAGAUGUUUAUGAAUATT against Slc6a14, the z-score was inactive: 0.355.
For GGGAGAUUGCAUUUGGAGCTT against Olfr678, the z-score was inactive: -0.588.
In the case of “CCUCACAAUAUCUUUAGAATT against 4922501C03Rik”, the z-score is reported as inactive: -0.0289.
In the case of “GCAUUUUUCGUUAGGAAAATT against 2410004I17Rik”, the z-score is reported as inactive: -1.6.
In the case of GGAGAUGGUGGAAUUCUCUTT against Atp5a1, the z-score is reported as inactive: -0.677.
With GCAAUGACAGAACAUACAGTT against Cts7 the z-score was inactive: 0.321.
For GGAAGUUCGUUAUUAGGAUTT against Disp2, the z-score was inactive: 0.282.
With “GGAAGCUACCUGGAAGACATT against 2310005N01Rik” the z-score was inactive: -1.26.
For GGAGCAGCUUCUGCUUUCUTT against Senp1, the z-score was inactive: 1.44.
For CCAGAAGAGUACUGUUUUATT against Tpm4, the z-score was inactive: -0.0232.
With GGACUUAGGAGCCAAAAUUTT against Afg3l1 the z-score was inactive: -2.93.
For GGGAGGAAGUGGAAGUUCUTT against Tgfb1i4, the z-score was inactive: -1.19.
In the case of GCAUCAUGAGUCCCAUUCUTT against Olfr385, the z-score is reported as inactive: -1.95.
For GCAAAGGUUUAAGUUAUGATT against BC016226, the z-score was inactive: -0.296.
In the case of GGUACCUUGCUUUUAUUUUTT against Rdh13, the z-score is reported as inactive: 0.337.
In the case of GGAAAUUGUUAAGCAGUGUTT against Zc3hav1, the z-score is reported as inactive: -0.47.
In the case of GGAGUUAAAUUUAGAGAACTT against Shoc2, the z-score is reported as inactive: -0.0891.
For CCCACGCUUAGCAAUAUCATT against Asna1, the z-score was inactive: -0.53.
